Assay results as given in PubChem BioAssay AID540256 (National Center for Advancing Translational Sciences (NCATS), 2011).
Screen size: about 300,000 compounds; about 3,700 (1.2%) were called active. The shares of active, inactive and inconclusive entries below differ from those in the screen. The call rests on the fitted dose curve; tested in HEK293 cells. Where the call is inconclusive, the potency comes from a doubtful curve fit.

assay: qHTS for Inhibitors of binding or entry into cells for Lassa Virus; conditions: Lassa virus pseudotype entry inhibition, cell reporter; activity change, negative = inhibition: at 37.9 µM (top of the series) unless noted; further: nearly all actives have a fitted effect of over 50% in size
On the % scale 0 is the no-effect control and ±100 the full control effect; potency means the concentration at half of the fitted maximal effect.

Q: Which Potency does the source give for `COCCNC(=O)CCN1N=C(c2ccccc2)CCC1=O` here?
A: The Potency was inconclusive: 35.5 µM [activator, single point].

Q: With `Cc1ccc(-c2cc(-c3coc4ccc(Cl)cc4c3=O)c3c(n2)-c2ccccc2OC3)cc1` as the molecule, how does the Potency read?
A: Its Potency is inconclusive: 3.98 µM [activator, single point].

Q: Which Potency does the source give for `CCN(CC)c1ccc(C(=O)N/N=C(\C)c2ccc(O)cc2)cc1` here?
A: The Potency was inconclusive: 16.4 µM [inhibitor, partial curve, poor fit].

Q: Which Potency does the source give for `CC1CC(C)CN(C(=O)C2CCCN(c3ncnc4c3nc3n4CCCCC3)C2)C1` (stereo not drawn) here?
A: The Potency was inconclusive: 1.58 µM [inhibitor, full curve, poor fit].

Q: With `CCN(Cc1ccccc1)Cc1c(O)ccc2c(=O)c(-c3ccc(Cl)cc3)coc12` as the molecule, how does the Potency read?
A: The Potency was inconclusive: 6.31 µM [inhibitor, single point].

Q: Which Potency does the source give for `COc1ccc(/C=N/NC(=O)c2ccn[nH]2)cc1COc1ccc(Cl)cc1Cl` here?
A: Its Potency is inconclusive: 6.51 µM [inhibitor, partial curve].

Q: For `O=C(NNC(=O)c1cnccc1C(F)(F)F)c1ccccc1`, which Potency is on record?
A: Its Potency is inconclusive: 3.16 µM [inhibitor, single point].

Q: For `Nc1c(C(=O)NCc2cccnc2)sc(=S)n1-c1ccccc1`, which Potency is on record?
A: Its Potency is inconclusive: 29.1 µM [inhibitor, single point].

Q: Which Potency does the source give for `CC(=O)Nc1ccc(/C=N/NC(=S)NC(C)C)cc1` here?
A: The Potency was inconclusive: 22.4 µM [inhibitor, single point].

Q: Which Potency does the source give for `S=C(NCC1CCCO1)N1CCN(c2nc(-c3ccc(Cl)cc3)cs2)CC1` (stereo not drawn) here?
A: Its Potency is inconclusive: 10 µM [inhibitor, partial curve, poor fit].

Q: Which “activity change, negative = inhibition” value does the source give for `COc1ccc(OCc2cc(C(=O)NC3CCOCC3)no2)c2ccccc12` here?
A: The value was inactive: 0.743% [at 46.1 µM].

Q: Which “activity change, negative = inhibition” value does the source give for `CN1CCc2c(sc(NC(=O)CSc3ccc(F)cc3)c2-c2nc3ccccc3s2)C1` here?
A: The value was inactive: 1.11% [at 46.1 µM].

Q: With `COc1cccc(C(=O)NC(=NCCc2c[nH]c3ccc(OC)cc23)Nc2nc(C)cc(C)n2)c1` as the molecule, how does the Potency read?
A: Its Potency is inconclusive: 35.5 µM [inhibitor, single point].

Q: For `CC(C)CN(CCCNC(=O)c1cc(=O)[nH]c2ccc(S(=O)(=O)N3CCCC3)cc12)CC(C)C`, which “activity change, negative = inhibition” value is on record?
A: The value was inactive: 9.03% [at 46.1 µM].

Q: With `CN1CCc2nc3ccccc3c(C(=O)OCC(=O)N(CCC#N)c3ccccc3)c2C1` as the molecule, how does the Potency read?
A: The Potency was inconclusive: 11.2 µM [inhibitor, partial curve, poor fit].

Q: With `CCc1cccc(CC)c1NC(=O)C(Cc1ccccc1)NS(=O)(=O)c1cccc2nsnc12` (stereo not drawn) as the molecule, how does the “activity change, negative = inhibition” value read?
A: Its value is inactive: -18.3% [at 46.1 µM].

Q: With `CCN1CC(CN(C)Cc2nc(-c3cccs3)no2)CC1=O` (stereo not drawn) as the molecule, how does the “activity change, negative = inhibition” value read?
A: Its value is inactive: 9.61% [at 46.1 µM].

Q: For `O=C(Nc1nc2ccc(Cl)cc2s1)c1cc(=O)c2ccccc2o1`, which Potency is on record?
A: The Potency was inconclusive: 11.2 µM [activator, partial curve, poor fit].
